Laboratory results reported in patent publication US10406197B2, “Substances and methods for the use in prevention and/or treatment in Huntington's disease” (AFFIRIS AG, priority 2014, dated 2019).

B1: M1D1: monoclonal antibody, mouse IgM, generated using peptide p7564 as immunogen; VH/VL SEQ ID No. 64/65 (antibody)
VH: MDFGLSWVFFVVFYQGVHCEVQLVESGGGLVQPKGSLKLSCAASGFTFNTYAMNWVRQAPGKGLEWVARIRSKSNNYATYYADSVKDRFTISRDDSQSMLYLQMNNLKTEDTAMYYCVRHGEYGNPWFAYWGQGTLVTVSAESQSFPNVFPL
light: MKLPVRLLVLMFWIPASSSDVVMTQTPLSLPVSLGDQASISCRSSQSLVHSNGNTYLHWYLQKPGQSPKLLIYKVSNRFSGVPDRFSGSGSGTDFTLKISRVEAEDLGVYFCSQSTHVPYTFGGGTKLEIKRADAAPTVSIFPPSSEQLTSGGASVVCFLNNFYPK
modifications: antibody sequence
B2: C6-17: monoclonal antibody, mouse IgG2a, generated by hybridoma technique using peptide p7543 as immunogen; VH/VL SEQ ID No. 60/61 (antibody)
VH: MGWSCIMLFLLSGTAGVLSEVQLQQSGPELVKPGASVKISCKTSGYTFTEYTMHWVKQSHGKSLEWIGGINPNNGGTRYNQKFKGKATLTVDRSSSTAYMELRSLTSEDSAVYYCASLDGRDYWGQGTTLTVSSAKTTAPSVFPLA
light: MVLMLLLLWVSGTCGDIVMSQSPSSLAVSAGEKVTMSCKSSQSLLNSRTRKNYLAWYQQKPGQSPKLLIYWASTRESGVPDRFTGSGSGTDFTLTISSVQAEDLAVYSCKQSYNLLTFGAGTKLELKRADAAPTVSIFPPSSEQLTSGGASVVCFLNNFYPK
modifications: antibody sequence
B3: PRR13: monoclonal antibody, mouse IgG2a, generated by hybridoma technique using peptide p6773 as immunogen; VH/VL SEQ ID No. 62/63 (antibody)
VH: MGWSWVMLFLLSGTGGVLSEVQLQQSAPELVKPGASVKMSCKASGYSFTDFYMKWVKQSHGKGLEWIGDIDPKNGDTFYNQKFKGRATLTVDKSSSTAYMQLNSLTTEDSAVYYCATYYGYTMDYWGQGTSVTVSSAKTTAPSVYPLAPVCGDTTGSSVTLGCLVKGYF
light: MDFQVQIFSFLLISASVIMSRGQIVLTQSPAIMSASLGERVTMTCTASSSVTSSYLHWYQQKPGSSPKLWIYSTSNLASGVPARFSGSGSGTSYSLTISSMEAEDAATYYCHQYRRPPRTFGGGTKLEIKRADAAPTVSIFPPSSEQLTSGGASVVCFLNNFYPR
modifications: antibody sequence

These molecules were tested on Huntingtin-derived immunization peptides (assay: Core epitope mapping by alanine / single amino acid substitution scanning). Details: signal of substituted peptide reduced to less than 70% defines core epitope position.
Format: binding, human

Molecule | core epitope
B1 | SSEIVLD
B2 | QYLGLQIG
B3 | ..........LLPQP.....epitope mapped for mAB PRR13
